Measured values taken from PubChem BioAssay AID493014 (National Center for Advancing Translational Sciences (NCATS), 2011).
Values joined by “and” are separate entries in the source; they are usually repeats but may differ in a detail not shown here. Equal entries are not always repeated. Some of the results follow. The main result of the screen is listed elsewhere. These columns were measured beside it and carry no call. Compounds called inactive in the main read-out are mostly missing here. Potencies come from curve fits of mixed quality, noted in brackets.

Experiment: qHTS Assay to Find Inhibitors of Chronic Active B-Cell Receptor Signaling
Conditions: ABC-DLBCL IkBa-CBG/CBR reporter, luminescence ratio (green luciferase fused to IkBa over red control in TMD8 lymphoma cells), 4 h
Procedure, shortened: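 Compounds up to 46 uM were incubated four hours with TMD8 cells whose green CBG68 luciferase is fused to IkappaBalpha; red CBR luminescence normalised the signal, and concentration-effect curves were fitted to fusion, red and ratio data.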

[1] = measured here: CBR red luminescence, cell number
[2] = measured here: IkBa-CBG green luminescence

SMILES	AC50 [1]	AC50 [2]
Cc1nc2cc(-c3cccc(F)c3)nn2c(N2CCN(C(=O)c3ccco3)CC2)c1C	20.6 µM [rising, single point]	–
CC1=C(C(N)=O)C(c2ccccn2)n2nc(SCc3ccccc3)nc2N1 (stereo unspecified)	14.6 µM [falling, partial curve, poor fit]	–
CCOc1c(OC)cccc1C1CC(=O)Nc2cc(OC)c(OC)cc21 (stereo unspecified)	2.06 µM [rising, full curve]	5.8 µM [falling, partial curve]
COc1ccc2nc(SCC(=O)NC(C)c3ccccc3)[nH]c2c1 (stereo unspecified)	2.59 µM [rising, full curve]	–
S=C(NCCSCc1c(Cl)cccc1Cl)Nc1ccccc1	0.1 µM [rising, full curve, poor fit]	–
CCn1nc(C(=O)N2CCN(Cc3nc4ccccc4s3)CC2)c2ccccc2c1=O	2.59 µM [rising, full curve, poor fit]	–
CCCCCCc1nc(C(N)=O)c2[nH]c(=O)n(-c3ccc(OC)cc3OC)c2n1	2 µM [rising, partial curve, poor fit]	–
CN(c1ccccc1)S(=O)(=O)c1cccc(NS(=O)(=O)c2cccc(C(=O)O)c2)c1	16.4 µM [rising, single point]	–
CCOC(=O)c1c(NC(=O)c2cc(C)oc2C)sc(C(=O)Nc2ccc(Cl)cc2)c1C	35.5 µM [falling, single point]	–
CC(C)NS(=O)(=O)c1ccc(Oc2ncc(C(F)(F)F)cc2Cl)cc1	0.00461 µM [rising, full curve, poor fit]	–
Cc1ccc(C(C)C)c(OCc2nn(CC(=O)c3ccc(Cl)cc3)c3[n+]2CCCCC3)c1	14.1 µM [falling, single point]	–
C/C=C/C=C/C(=O)Nc1nccs1	20.6 µM [falling, partial curve, poor fit]	–
COc1ccc(C(=O)O)cc1S(=O)(=O)Nc1ccc(Oc2ccccc2)cc1	16.4 µM [falling, partial curve]	–
COCCNC(=S)N/N=C/c1ccc(N2CCOCC2)cc1	23.1 µM [falling, single point]	20.6 µM [falling, single point]
CC(=O)c1ccc(C(=O)N(CCN(C)C)c2nc3c(Cl)cccc3s2)cc1	20 µM [falling, single point]	–
Cc1ccc(C2c3c(oc4ccccc4c3=O)C(=O)N2c2nnc(C(C)C)s2)o1 (stereo unspecified)	0.092 µM [rising, full curve, poor fit]	–
CC1(C)CC(=O)c2sc(NC(=O)CCS(=O)(=O)c3ccccc3)nc2C1	16.4 µM [falling, partial curve]	–
O=C(Nc1ccnn1C1CCN(Cc2cccc(O)c2)CC1)C1CCCC1	14.1 µM [rising, partial curve, poor fit]	–
O=C(Nc1cc(C(F)(F)F)ccc1F)C1CCCCC1	5.17 µM [falling, single point]	–

SMILES	AC50 [1]	AC50 [2]
CC(C)N(Cc1cc2ccccc2[nH]c1=O)C(=O)C1CCCCC1	14.6 µM [falling, partial curve]	14.6 µM [rising, partial curve, poor fit]
Cc1ccc(CONC(=O)c2ccccc2Cl)cc1	29.1 µM [falling, single point]	–
CCc1nonc1NC(=O)c1oc2ccc(Cl)cc2c1C	2.51 µM [rising, partial curve, poor fit]	–
CC[C@H](C)C(=O)O[C@H]1CCC=C2C=C[C@H](C)[C@H](CC[C@@H]3C[C@@H](O)CC(=O)O3)[C@H]21	35.5 µM [falling, single point] and 7.08 µM [falling, partial curve]	–
CC[C@]12c3[nH]c4cc(CCC(=O)N(C)C)ccc4c3CCN1C(=O)[C@@H](CC(=O)NCc1ccco1)C[C@@H]2C(=O)N1CCN(C(=O)c2ccco2)CC1	2.31 µM [rising, full curve]	16.4 µM [falling, partial curve]
Cc1cccc(NC(=O)NNC(=O)c2cc(-c3ccccc3Cl)nc3ccccc23)c1	28.2 µM [falling, single point]	–
O=[N+]([O-])c1ccccc1C1Nc2cccc3cccc(c23)N1	3.26 µM [falling, single point]	–
c1ccc(-n2c(-c3cccs3)nc3nc4ccccc4nc32)cc1	0.651 µM [rising, full curve]	–
O=C(Nc1cccc(-c2cccc(Cl)c2)c1)C1CCN(C2CCC2)CC1	35.5 µM [falling, single point]	–
COc1ccc(OC)c(NC(=O)C2CCN(c3ncccn3)CC2)c1	17.8 µM [falling, single point]	–
COC(=O)c1cc(C(=O)Nc2nnc(CC(C)C)s2)cc([N+](=O)[O-])c1	4.61 µM [rising, partial curve, poor fit]	–
CCCN1CCC(=NNc2ccc(S(=O)(=O)N3CCOCC3)cc2[N+](=O)[O-])CC1	10.3 µM [falling, partial curve]	–
CCCCCCN=C1CC(C)(C)CC(=O)/C1=C(/O)CCC	15.8 µM [falling, single point]	–
CCOC(=O)c1ccccc1NC(=O)CSc1ncc(C(=O)OCC)c(N)n1	29.1 µM [falling, single point]	–
Cc1ccc(C(=O)Nc2cccc(C(=O)N/N=C/c3ccc(O)cc3)c2)cc1	3.98 µM [falling, partial curve]	–
COc1ccc2c(c1)[C@H]1[C@H](CO2)[C@H](c2ccccc2)[C@]2(C)C(=O)Nc3ccc(Br)cc3C(=O)N12	23.1 µM [falling, partial curve]	–
CCOC(=O)C1CCN(C(=O)c2cccc(NC(=O)C(CC)CC)c2)CC1	3.66 µM [rising, full curve, poor fit]	–
CN1CCC(=O)N([C@H](CSc2ccc(Br)cc2)c2ccccc2)CC1	8.91 µM [falling, partial curve, poor fit]	–

Record cards (already shown). Values in the order: AC50 [1] | AC50 [2]
COc1ccc2nc(SCC(=O)NC(C)c3ccccc3)[nH]c2c1 (stereo unspecified) in the list: 2.59 µM [rising, full curve] | –
CC1=C(C(N)=O)C(c2ccccn2)n2nc(SCc3ccccc3)nc2N1 (stereo unspecified) in the list: 14.6 µM [falling, partial curve, poor fit] | –
